{"source": "PubChem BioAssay AID1259308 (NCATS, 2017)", "assay": "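Genes whose loss raises luciferase production in HEK293 cells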 (primary screen)", "system": "human HEK293 embryonic kidney cells stably expressing firefly luciferase (HEK-CMV-Luc2-Hygro)", "reagent": "single siRNA against human genes, 0.8 pmol siRNA per well", "duration": "72 h", "measurement": "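Reporter luminescence and viable-cell signal on separate replicate plates, given as percent of non-targeting control and median/MAD z-scores, plus per-cell luciferase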", "reading the numbers": "total luciferase, z-score: higher = more reporter protein produced", "hit rule": "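Active when the median/MAD z-score for overall luciferase is greater than 3; a gene was taken forward for validation with new siRNAs if at least two of its three siRNAs passed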", "meaning of the calls": "active = raised luciferase; inactive = no rise", "note": "Here is a random part of about 59,000 deposited reagents. About 1,510 of them (2.6%) were called active. 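Calls use total luciferase alone and ignore viability, so some active siRNAs may act by altering cell number.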 Entries without a mark were called inactive. Reagents against one gene are numbered here. Not all columns of the deposit are shown."}
{"Gene": "TGFBR3", "siRNA no.": 1, "total luciferase, z-score": -0.415}
{"Gene": "TGFBR3", "siRNA no.": 2, "total luciferase, z-score": -0.0644}
{"Gene": "TGFBR3", "siRNA no.": 3, "total luciferase, z-score": -0.235}
{"Gene": "ANGPTL3", "siRNA no.": 1, "total luciferase, z-score": -0.881}
{"Gene": "ANGPTL3", "siRNA no.": 2, "total luciferase, z-score": -1.04}
{"Gene": "ANGPTL3", "siRNA no.": 3, "total luciferase, z-score": 0.173}
{"Gene": "BRINP3", "siRNA no.": 1, "total luciferase, z-score": -0.86}
{"Gene": "BRINP3", "siRNA no.": 2, "total luciferase, z-score": 2.96}
{"Gene": "BRINP3", "siRNA no.": 3, "total luciferase, z-score": -0.605}
{"Gene": "FLNA", "siRNA no.": 1, "total luciferase, z-score": 1.16}
{"Gene": "FLNA", "siRNA no.": 2, "total luciferase, z-score": -1.14}
{"Gene": "FLNA", "siRNA no.": 3, "total luciferase, z-score": 0.759}
{"Gene": "LCP2", "siRNA no.": 1, "total luciferase, z-score": -0.154}
{"Gene": "LCP2", "siRNA no.": 2, "total luciferase, z-score": 0.477}
{"Gene": "LCP2", "siRNA no.": 3, "total luciferase, z-score": 0.383}
{"Gene": "ST13P8", "siRNA no.": 1, "total luciferase, z-score": -2.95}
{"Gene": "ST13P8", "siRNA no.": 2, "total luciferase, z-score": 1.11}
{"Gene": "ST13P8", "siRNA no.": 3, "total luciferase, z-score": 0.506}
{"Gene": "E2F6", "siRNA no.": 1, "total luciferase, z-score": 0.906}
{"Gene": "E2F6", "siRNA no.": 2, "total luciferase, z-score": "4.59 (active)"}
{"Gene": "E2F6", "siRNA no.": 3, "total luciferase, z-score": 1.26}
{"Gene": "RPL32P36", "siRNA no.": 1, "total luciferase, z-score": -0.253}
{"Gene": "RPL32P36", "siRNA no.": 2, "total luciferase, z-score": -2.96}
{"Gene": "RPL32P36", "siRNA no.": 3, "total luciferase, z-score": -1.24}

Active calls, of those listed so far:
{"Gene": "E2F6", "siRNA no.": 2, "total luciferase, z-score": "4.59 (active)"}

Additional reagents follow:
{"Gene": "FREM3", "siRNA no.": 1, "total luciferase, z-score": -0.0269}
{"Gene": "FREM3", "siRNA no.": 2, "total luciferase, z-score": -0.965}
{"Gene": "FREM3", "siRNA no.": 3, "total luciferase, z-score": -0.0743}
{"Gene": "PIK3CD", "siRNA no.": 1, "total luciferase, z-score": 1.22}
{"Gene": "PIK3CD", "siRNA no.": 2, "total luciferase, z-score": 1.01}
{"Gene": "PIK3CD", "siRNA no.": 3, "total luciferase, z-score": 0.226}
{"Gene": "MMP10", "siRNA no.": 1, "total luciferase, z-score": 0.0117}
{"Gene": "MMP10", "siRNA no.": 2, "total luciferase, z-score": -0.345}
{"Gene": "MMP10", "siRNA no.": 3, "total luciferase, z-score": -0.21}
{"Gene": "NPAS1", "siRNA no.": 1, "total luciferase, z-score": 1.55}
{"Gene": "NPAS1", "siRNA no.": 2, "total luciferase, z-score": 0.496}
{"Gene": "NPAS1", "siRNA no.": 3, "total luciferase, z-score": 1.77}
{"Gene": "AMN1", "siRNA no.": 1, "total luciferase, z-score": -0.63}
{"Gene": "AMN1", "siRNA no.": 2, "total luciferase, z-score": -0.762}
{"Gene": "AMN1", "siRNA no.": 3, "total luciferase, z-score": -0.428}
{"Gene": "KLF11", "siRNA no.": 1, "total luciferase, z-score": 1.94}
{"Gene": "KLF11", "siRNA no.": 2, "total luciferase, z-score": -0.941}
{"Gene": "KLF11", "siRNA no.": 3, "total luciferase, z-score": 0.107}
